This data set can be described thus: Calf study: blood measurements (hematocrit, lymphocytes, fibrinogen). The format is in vivo. The conditions noted are these: calves, weekly blood samples. The method, then: Three days after they were born, calves were started on all milk, milk replacer. The calves were assigned randomly to one of four treatment groups control, β-glucan, Vitamin C, and β-glucan and Vitamin C. Each treatment is represented in a block (1 block has 4 calves and each room has 3 blocks). Initial weight and temperature were taken when calves were placed on study, then weekly for six more weeks.
Fecal scores, nasal and ocular discharges were recorded daily along with room temperature and humidity. Blood samples were taken every week for seven weeks; 10 ml heparinized tube for plasma to measure cortisol and ascorbic acid; 5 ml sodium citrate tube for hematocrits, granulocytes, lymphocytes and fibrinogen.
Calves were fed milk replacer equaling 10% of their body weight per day, which was given in two equal rations (morning and afternoon). Dry milk replacer was equal to 12.5% of amount fed. Calves on treatment […] were given β-glucan equaling 0.3125% of total intake. Calves on treatment 3 and 4 received 250 mg of Vitamin C twice a day.

The substance ascorbyl-2-polyphosphonate [AA] had a Lymphocyte percent of 74.35%. The substance further gave a Mean fibrinogen (mean ±SE) of 442.34 ± 12.91 mg/dL.

The record behind these values is patent publication US6939864B1, “Animal feed compositions and methods of using the same” (Purdue Research Foundation, priority 2001, dated 2005).
